PubChem BioAssay AID1224830, NIAID, 2016

Screen: 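Host factors that control LPS-induced TNF expression in human macrophages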 (primary screen)
Cell system: human THP-1 monocytic leukaemia cells, TNF dual-luciferase reporter clone, PMA-differentiated to macrophage-like cells
Knock-down reagent: siRNA pool against human genes, 50 nM
Timing: LPS for 4 h, given about 3 days after siRNA transfection
Challenge: bacterial LPS (TLR4 ligand), 10 ng/ml
Detection: 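Ratio of firefly to renilla light, scaled to the plate median and expressed as a robust z-score per replicate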
Direction: TNF reporter robust z-score: higher = stronger TNF reporter response to LPS
Rule for the call: 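Each well counts as active if its z-score is over 2.8 or under -1.5; controls are left without a call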
Shown is one part, drawn at random, of about 18,000 reagents. About 2,900 of all reagents (16%) were called active. 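Calls are made per well; low scores hint the gene aids the LPS response, high scores that it dampens it.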 A number with no mark means an inactive call. Repeated entries: four replicate wells of each siRNA pool.

no.	gene symbol	TNF reporter robust z-score
1	SLC25A5	0.59
2	SLC25A5	1.63
3	SLC25A5	0.2
4	SLC25A5	1.12
5	ENO1 (enolase 1)	0.27
6	ENO1 (enolase 1)	-0.13
7	ENO1 (enolase 1)	2.12
8	ENO1 (enolase 1)	0.55
9	SYNPO (synaptopodin)	0.32
10	SYNPO (synaptopodin)	0.66
11	SYNPO (synaptopodin)	-0.31
12	SYNPO (synaptopodin)	0.19
13	ITIH4 (inter-alpha-trypsin inhibitor heavy chain 4)	-1.16
14	ITIH4 (inter-alpha-trypsin inhibitor heavy chain 4)	-0.75
15	ITIH4 (inter-alpha-trypsin inhibitor heavy chain 4)	-1.22
16	ITIH4 (inter-alpha-trypsin inhibitor heavy chain 4)	-0.16
17	GPR45 (G protein-coupled receptor 45)	-0.4
18	GPR45 (G protein-coupled receptor 45)	0.02
19	GPR45 (G protein-coupled receptor 45)	-0.73
20	GPR45 (G protein-coupled receptor 45)	-0.03
21	SPATA33 (spermatogenesis associated 33)	-0.52
22	SPATA33 (spermatogenesis associated 33)	-1.45
23	SPATA33 (spermatogenesis associated 33)	-1.19
24	SPATA33 (spermatogenesis associated 33)	-0.18
25	SLC6A20	-1.6 (active)
26	SLC6A20	-1.33
27	SLC6A20	-0.53
28	SLC6A20	-0.78
29	SLC71A2	-0.23
30	SLC71A2	1.49
31	SLC71A2	0.13
32	SLC71A2	1.12

Not a retest: 7 of the entries above.
no.	gene symbol	TNF reporter robust z-score
8	ENO1 (enolase 1)	0.55
9	SYNPO (synaptopodin)	0.32
10	SYNPO (synaptopodin)	0.66
11	SYNPO (synaptopodin)	-0.31
12	SYNPO (synaptopodin)	0.19
13	ITIH4 (inter-alpha-trypsin inhibitor heavy chain 4)	-1.16
14	ITIH4 (inter-alpha-trypsin inhibitor heavy chain 4)	-0.75

The results go on:
no.	gene symbol	TNF reporter robust z-score
33	HEY1	0.29
34	HEY1	2.15
35	HEY1	1.94
36	HEY1	1.37
37	ONECUT3 (one cut homeobox 3)	-0.72
38	ONECUT3 (one cut homeobox 3)	-0.32
39	ONECUT3 (one cut homeobox 3)	-0.51
40	ONECUT3 (one cut homeobox 3)	-0.26
41	ZNF700 (zinc finger protein 700)	1.04
42	ZNF700 (zinc finger protein 700)	-0.1
43	ZNF700 (zinc finger protein 700)	-1.07
44	ZNF700 (zinc finger protein 700)	0.67
45	OR5B21 (olfactory receptor family 5 subfamily B member 21)	-0.84
46	OR5B21 (olfactory receptor family 5 subfamily B member 21)	1.06
47	OR5B21 (olfactory receptor family 5 subfamily B member 21)	-0.25
48	OR5B21 (olfactory receptor family 5 subfamily B member 21)	0.58
